## Percent effect of library compounds

The chains behind the UniProt entries cited, without tags or fusion partners. Residues count along the entry.
UniProt Q8IDJ8, 1-583: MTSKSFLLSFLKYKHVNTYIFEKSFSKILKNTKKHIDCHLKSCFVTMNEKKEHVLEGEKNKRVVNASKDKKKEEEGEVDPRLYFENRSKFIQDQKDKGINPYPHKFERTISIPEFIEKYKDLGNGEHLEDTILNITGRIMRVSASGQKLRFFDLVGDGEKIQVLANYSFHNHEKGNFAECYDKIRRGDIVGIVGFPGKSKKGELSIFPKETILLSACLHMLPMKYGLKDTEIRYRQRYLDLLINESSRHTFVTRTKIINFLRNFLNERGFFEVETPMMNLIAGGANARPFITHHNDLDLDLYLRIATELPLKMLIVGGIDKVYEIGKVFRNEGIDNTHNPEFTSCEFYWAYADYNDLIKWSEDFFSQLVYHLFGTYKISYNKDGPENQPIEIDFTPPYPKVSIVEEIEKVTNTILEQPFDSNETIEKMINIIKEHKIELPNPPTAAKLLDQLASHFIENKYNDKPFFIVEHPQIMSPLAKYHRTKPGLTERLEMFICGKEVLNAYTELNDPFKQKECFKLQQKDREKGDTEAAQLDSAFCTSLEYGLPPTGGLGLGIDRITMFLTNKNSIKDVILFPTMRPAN

From ChEMBL document CHEMBL3988442, “University of Dundee, Small-Polar-MMV Screening Library” (2021).

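Enzyme assay of the cytosolic lysyl-tRNA synthetase in 384-well plates, read by luminescence. Target: Lysine-tRNA ligase, Plasmodium falciparum 3D7 (UniProt Q8IDJ8). Concentration: 30 µM. Higher reads as stronger inhibition, judged from the few compounds that gave an IC50. Of about 69,000 compounds tested this way, about 49 (0.071%) reached 50% or more in at least one test.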

The filed quantity is “Percent Effect” (%).
How 0% and 100% were set is not recorded. Most values in the screen are low, and negative values occur.
This is an unselected part of the compounds tested.

| # | compound | effect |
|---|---|---|
| 1 | `CC(C)c1nc(CN2CCCCC2)cs1` | -1.797 |
| 2 | `O=C(c1cc(Cl)c[nH]c1=O)N1C[C@@H]2CC[C@H](C1)N(Cc1ccccc1)C2` | -0.9064 |
| 3 | `O=C(CN1CCOC(c2ccccc2C(F)(F)F)C1)NC1CC1` (centres unmarked) | 0.8076 |
| 4 | `O=C(CCCn1ccnc1)NC1CCCN(c2ccccc2Cl)C1` (centres unmarked) | 2.319 |
| 5 | `N#Cc1cccc(CS(=O)(=O)NCCC(O)c2ccccc2)c1` (centres unmarked) | 0.2225 |
| 6 | `CCc1cn[nH]c1C1CCN(C(=O)c2cccc(O)c2C)CC1` | -0.8931 |
| 7 | `O=C(Nc1nncs1)N1CCCN(C2CCCC2)CC1` | -4.751 |
| 8 | `CC(C)N(C)Cc1n[nH]c2c1CCN(C(=O)c1cc[nH]n1)C2` | 0.4245 |
| 9 | `Cc1ncsc1CN1CCC2(CC1)CC(=O)N(Cc1ccc(Cl)cc1)C2` | 4.581 |
| 10 | `CC(=O)NCc1cncc(C2CCCN2C2CCOCC2)n1` (centres unmarked) | 2.376 |
| 11 | `O=C(c1ccon1)N1CCN(c2ccncc2Cl)CC1` | 5.279 |
| 12 | `CO[C@@H]1CO[C@@]2(CCCN(S(=O)(=O)c3ccccc3)C2)C1` | 6.79 |
| 13 | `O=c1[nH][nH]cc1-c1ccnc(NCCc2cccnc2)n1` | 6.274 |
| 14 | `O=C(NC1CC1)N1C[C@H]2CN(c3ccccc3)C(=O)[C@H]2C1` | -1.426 |
| 15 | `CC(=O)N1CCC2(CCCN2Cc2cnn(C)c2)CC1` | 7.918 |
| 16 | `Cc1cnn(CC2CN(Cc3nnc(C4CC4)o3)CCO2)c1` (centres unmarked) | -0.4484 |
| 17 | `CC(=O)N[C@@H]1CN(c2nc(CO)cs2)C[C@H]1c1ccc(C)o1` | 1.021 |
| 18 | `CNS(=O)(=O)CCCNC(C)(C)c1nc(C)cs1` | -0.9609 |
| 19 | `N#Cc1c(Cl)nsc1NCc1cccnc1OCC(F)(F)F` | 7.128 |
| 20 | `Cc1cc(C)n(C2CCN(Cc3c(-c4cc(C)on4)nn(C)c3Cl)C2)n1` (centres unmarked) | 14.12 |
| 21 | `CCc1cnc2c(c1Nc1ccccc1OC)c(=O)n(C)c(=O)n2C` | 3.966 |
| 22 | `COc1cc2c(cc1CN1CCC3(CCCN(C)C3=O)C1)OCCO2` (centres unmarked) | 1.229 |
| 23 | `CC(C)N1CCC(NC(=O)NC2CCOc3ccc(Br)cc32)CC1` (centres unmarked) | 2.677 |
| 24 | `CC(O)CN(c1ccccc1)S(=O)(=O)c1cc(C(=O)O)cc2c1CCC2` (centres unmarked) | 5.417 |
| 25 | `COCC1CCN(C(=O)c2cccc(S(=O)(=O)NC3CCCC3)c2)C1` (centres unmarked) | 0.6113 |
| 26 | `Cc1cc(CN2CCN(C(=O)NCc3csc(C)n3)CC2)no1` | -2.531 |
| 27 | `Cc1cnc(N2CCC3(CC2)CC(NC(=O)N(C)C)CO3)nc1` (centres unmarked) | 3.08 |
| 28 | `Cn1ccnc1NC[C@@H]1CCC[C@@H]2CN(Cc3cccnc3)C[C@@H]21` | 0.1051 |
| 29 | `CCSc1cc(C(=O)N(C(C)C)C2CC2)ccn1` | 1.457 |
| 30 | `Cc1ccc(CN2Cc3nccn3CC(Cn3cccn3)C2)s1` (centres unmarked) | 7.391 |
| 31 | `Cn1cc(C2CCCN2CCc2nc3ccccc3c(=O)[nH]2)cn1` (centres unmarked) | -0.9139 |
| 32 | `CCS(=O)(=O)c1ncc(CN2CCOCC2)n1CCCc1ccccc1` | 0.8018 |
| 33 | `Cc1ncnc2c1CCN(C(=O)Cc1ccccn1)CC2` | 0.03632 |
| 34 | `CCc1cnc2c(c1Nc1ccc(C)c(F)c1)c(=O)n(C)c(=O)n2C` | 2.337 |
| 35 | `CC(C)[C@@H]1CN(Cc2ccsc2)C[C@H]1NS(=O)(=O)N(C)C` | 8.938 |
| 36 | `CN1CCC(NC(=O)Nc2ccc(Cl)c(F)c2)C1=O` (centres unmarked) | 1.036 |
| 37 | `Cc1ccc(CNC(=O)Nc2nncs2)cn1` | 1.978 |
| 38 | `COCC1CN(C(=O)c2cccs2)Cc2nccn2C1` (centres unmarked) | 2.27 |
| 39 | `CCc1nc(CN2CCCN(C(=O)CCSC)CC2)cs1` | 5.744 |
| 40 | `Cn1cc(CN2C[C@H]3CCC[C@@H](CNc4nccn4C)[C@H]3C2)cn1` | 8.84 |
| 41 | `CCn1nccc1S(=O)(=O)N1CCC2(CCCN(C(C)C)C2=O)C1` (centres unmarked) | 3.332 |
| 42 | `CC(C(=O)N1CCN(c2ccccc2Cl)CC1)n1cncn1` (centres unmarked) | 2.516 |
| 43 | `COc1ccc(CN(C)c2nc3c(cnn3C)c(=O)[nH]2)c(OC)c1` | 3.174 |
| 44 | `COc1ccc(CCc2nnc(NC(=O)C3CC34CCC4)s2)cc1OC` (centres unmarked) | 0.8491 |
| 45 | `CC(=O)N[C@@H]1CN(Cc2nnc(-c3ccccc3)o2)C[C@H]1C(C)C` | 12.18 |
| 46 | `Cc1ccnc(NC(=O)CCc2cnn(C)c2C)c1` | 6.414 |
| 47 | `Cc1nc2sccn2c1CN(CCCN(C)C)Cc1ccccn1` | -0.3282 |
| 48 | `O=C(C1CNCCO1)N1CCCC(c2ccccc2)(c2ccccc2)C1` (centres unmarked) | 7.491 |
| 49 | `O=C(CCOc1ccccc1F)NC1CCCN(c2ccccn2)C1` (centres unmarked) | 0.7541 |
| 50 | `CC(NC(=O)OC(C)(C)C)c1nnc(S(=O)(=O)Cc2ccccc2Cl)o1` (centres unmarked) | -0.1986 |
| 51 | `Cc1cc(Cc2ccc(S(=O)(=O)N3CCCC3)cc2)c(=O)[nH]n1` | 3.127 |
| 52 | `O=C(Cc1ccc(F)cc1)NCCNS(=O)(=O)C1CCCC1` | -3.249 |
| 53 | `Cc1cccc(N(C)S(=O)(=O)c2cc(C(=O)O)cs2)c1C` | 2.744 |
| 54 | `CCO[C@H]1CO[C@@]2(CCCN(Cc3scnc3C)C2)C1` | 2.604 |
| 55 | `CCc1ccc(CN2CCCC(CO)(CCOC)C2)cc1` (centres unmarked) | 0.7892 |
| 56 | `CCCNC(=O)COc1cccc(-c2nc(C(C)C)no2)c1` | -0.1985 |
| 57 | `Cc1csc(N2CCN(C(=O)c3cc(Cl)c[nH]3)CC2)n1` | 2.311 |
| 58 | `CCN(CC)C(=O)CNC(=O)N1CCC(c2ccc(OC)cc2)C1` (centres unmarked) | -4.3 |
| 59 | `COc1ccc(CN(Cc2cnn(C)c2)CC(C)C)cn1` | 5.647 |
| 60 | `O=C1NCCCCC1Sc1nnc(C2CC2)n1C1CC1` (centres unmarked) | 0.9621 |
| 61 | `O=c1c(CN2CCCCCC2)coc(O)c1CN1CCOCC1` | 7.064 |
| 62 | `COc1cc(NC(=O)c2ccc(CN3CC[C@H](O)C3)cc2)cc(OC)c1` | 3.732 |
| 63 | `Cc1cccc2c(CCNC(=O)NCC[S+](C)[O-])c[nH]c12` (centres unmarked) | 1.199 |
| 64 | `COc1ccccc1C1(O)CCCN(C(=O)c2csc(C(C)=O)c2)C1` (centres unmarked) | 0.3051 |
| 65 | `N#Cc1cc(C#N)c(SCC(=O)Nc2ccc(F)cc2)nc1N` | 7.585 |
| 66 | `COc1ccccc1-n1nc(-c2ccco2)n(CC(=O)NC(C)C)c1=O` | -2.146 |
| 67 | `CC(Cn1ccnc1)NC(=O)NCCc1ccc(Cl)s1` (centres unmarked) | 0.4086 |
| 68 | `O=C(c1ccco1)N1CCCC2(C1)CN(c1nncs1)CCO2` (centres unmarked) | 2.873 |

The last 3 entries again:

compound,effect
COc1ccccc1-n1nc(-c2ccco2)n(CC(=O)NC(C)C)c1=O,-2.146
CC(Cn1ccnc1)NC(=O)NCCc1ccc(Cl)s1 (centres unmarked),0.4086
O=C(c1ccco1)N1CCCC2(C1)CN(c1nncs1)CCO2 (centres unmarked),2.873